Experimental data: the supplement of paper PMC6078165
The reference is the same well before dosing, and untreated signal decays as well.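 Fibroblast labels denote human fibroblasts, mainly primary ones from uterus (C12385, HUF), lung (H6013), bone (Hs27A), adrenal (HADF) and skin (WS1), plus mammary HMF and breast cancer-associated Hs343T. Cancer cells are basal-like or mesenchymal-like triple-negative breast cancer lines. A hit is a response shift exceeding 3x replicate standard deviation. The tissue of the other fibroblasts is not given here.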

Tested on: BT20
Assay: relative JC-1 red fluorescence (viability) vs pre-drug, coculture with fibroblast (fraction); higher = more viable cancer cells
Settings: 100 µM
Experimental: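 JC-1 labelled TNBC cells cocultured 1:1 (1,500 cells each) with CellTrace Violet stained primary or stromal fibroblasts in 384-well plates in FluoroBrite medium, treated with one of 42 anticancer drugs at 0.1, 1, 10 or 100 uM. JC-1 red fluorescence (mitochondrial integrity in cancer cells only) was read by plate reader every 8 h for 72 h. Values are normalised to each well's pre-drug value. The stock of one drug was tenfold lower, so its dose labels may be too high.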

N#Cc1ccc(C(c2ccc(C#N)cc2)n2cncn2)cc1 [Letrozole]
relative JC-1 red fluorescence
Settings | 8 h | 16 h | 24 h | 32 h | 40 h | 48 h | 56 h | 64 h | 72 h
coculture fibroblast: C12385 | 0.896 | 0.819 | 0.771 | 0.713 | 0.656 | 0.619 | 0.587 | 0.559 | 0.536
coculture fibroblast: H6013 | 0.9611 | 0.905 | 0.918 | 0.927 | 0.913 | 0.914 | 0.922 | 0.878 | 0.808
coculture fibroblast: H6019 | 0.875 | 0.835 | 0.782 | 0.724 | 0.679 | 0.654 | 0.611 | 0.58 | 0.556
coculture fibroblast: H6076 | 0.852 | 0.9249 | 0.843 | 0.816 | 0.772 | 0.741 | 0.716 | 0.704 | 0.678
coculture fibroblast: H6231 | 0.824 | 0.9617 | 0.8535 | 0.802 | 0.754 | 0.704 | 0.672 | 0.646 | 0.614
coculture fibroblast: HADF | 0.897 | 0.9366 | 0.825 | 0.822 | 0.7852 | 0.748 | 0.72 | 0.697 | 0.66
coculture fibroblast: HCFa | 0.9358 | 0.867 | 0.823 | 0.768 | 0.7112 | 0.6863 | 0.65 | 0.633 | 0.597
coculture fibroblast: HCPF | 0.939 | 0.895 | 0.817 | 0.762 | 0.716 | 0.678 | 0.6301 | 0.614 | 0.574
coculture fibroblast: HHSteC | 0.951 | 0.889 | 0.911 | 0.849 | 0.811 | 0.78 | 0.756 | 0.735 | 0.706
coculture fibroblast: HMF | 0.882 | 0.907 | 0.8004 | 0.74386 | 0.6978 | 0.661 | 0.627 | 0.599 | 0.565
coculture fibroblast: HPFa | 0.954 | 0.866 | 0.853 | 0.773 | 0.734 | 0.685 | 0.652 | 0.617 | 0.56
coculture fibroblast: HUF | 0.95 | 0.909 | 0.895 | 0.83 | 0.799 | 0.756 | 0.734 | 0.725 | 0.715
coculture fibroblast: Hs5 | 0.803 | 0.943 | 0.843 | 0.782 | 0.737 | 0.689 | 0.644 | 0.607 | 0.58
coculture fibroblast: Hs27A | 0.806 | 0.793 | 0.939 | 0.956 | 0.9052 | 0.8811 | 0.8487 | 0.806 | 0.757
coculture fibroblast: Hs343T | 0.99649 | 0.886 | 0.79 | 0.7389 | 0.686 | 0.6441 | 0.5842 | 0.553 | 0.5115
coculture fibroblast: WS1 | 0.8922 | 0.8282 | 0.752 | 0.693 | 0.629 | 0.5911 | 0.542 | 0.499 | 0.469
